Article PMC12145441

By UniProt entry, the sequences of proteins in these tests, tags left out.
UniProt O43791: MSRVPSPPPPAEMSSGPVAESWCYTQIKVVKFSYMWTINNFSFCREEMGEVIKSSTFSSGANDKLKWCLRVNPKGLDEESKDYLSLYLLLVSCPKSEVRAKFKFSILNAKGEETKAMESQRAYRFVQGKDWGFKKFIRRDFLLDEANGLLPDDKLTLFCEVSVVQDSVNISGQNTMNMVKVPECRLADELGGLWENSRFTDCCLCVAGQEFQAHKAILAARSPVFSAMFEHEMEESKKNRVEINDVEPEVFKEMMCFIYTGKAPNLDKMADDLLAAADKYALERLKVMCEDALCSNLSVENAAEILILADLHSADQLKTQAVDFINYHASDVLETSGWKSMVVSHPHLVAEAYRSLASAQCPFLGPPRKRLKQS

Target: T1, LMNB2, bait of the tandem affinity purification (TAP-MS) (UniProt Q03252)
T1 sequence: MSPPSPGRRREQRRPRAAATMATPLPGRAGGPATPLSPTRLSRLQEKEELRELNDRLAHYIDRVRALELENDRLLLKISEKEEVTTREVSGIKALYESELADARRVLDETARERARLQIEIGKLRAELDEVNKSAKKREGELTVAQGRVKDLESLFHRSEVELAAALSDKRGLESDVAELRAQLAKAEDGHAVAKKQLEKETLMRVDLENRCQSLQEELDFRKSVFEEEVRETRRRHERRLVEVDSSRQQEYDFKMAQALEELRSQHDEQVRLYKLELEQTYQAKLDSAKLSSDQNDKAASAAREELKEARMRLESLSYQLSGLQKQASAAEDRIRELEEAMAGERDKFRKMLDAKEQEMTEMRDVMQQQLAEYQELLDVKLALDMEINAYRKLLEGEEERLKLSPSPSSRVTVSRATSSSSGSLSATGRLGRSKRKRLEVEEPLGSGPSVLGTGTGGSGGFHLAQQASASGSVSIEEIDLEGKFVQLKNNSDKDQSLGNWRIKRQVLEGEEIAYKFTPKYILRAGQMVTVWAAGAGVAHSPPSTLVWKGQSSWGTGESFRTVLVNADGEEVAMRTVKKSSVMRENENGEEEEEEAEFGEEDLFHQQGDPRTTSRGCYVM
Assay: affinity purification with mass spectrometry; tandem affinity purification of LMNB2 coupled with mass spectrometry (TAP-MS); cells and tags not stated

- binding: binds
Substance: SPOP (speckle-type POZ protein), endogenous (from UniProt O43791 1-374)

No constants are given. Whether binding was seen depends on the method and setting. Binding seen in cells or lysates may run through a third protein. These calls come from enrichment with a bait or labelling near it, and not all partners need be listed.
